Measured values published in the supplement of paper PMC10849652.
The other results are listed elsewhere or left out.

By UniProt entry, the sequences of proteins in these tests, tags left out. Where a name states a change or a piece, a line headed by the entry shows the natural chain unless it says otherwise.
UniProt Q9Y490: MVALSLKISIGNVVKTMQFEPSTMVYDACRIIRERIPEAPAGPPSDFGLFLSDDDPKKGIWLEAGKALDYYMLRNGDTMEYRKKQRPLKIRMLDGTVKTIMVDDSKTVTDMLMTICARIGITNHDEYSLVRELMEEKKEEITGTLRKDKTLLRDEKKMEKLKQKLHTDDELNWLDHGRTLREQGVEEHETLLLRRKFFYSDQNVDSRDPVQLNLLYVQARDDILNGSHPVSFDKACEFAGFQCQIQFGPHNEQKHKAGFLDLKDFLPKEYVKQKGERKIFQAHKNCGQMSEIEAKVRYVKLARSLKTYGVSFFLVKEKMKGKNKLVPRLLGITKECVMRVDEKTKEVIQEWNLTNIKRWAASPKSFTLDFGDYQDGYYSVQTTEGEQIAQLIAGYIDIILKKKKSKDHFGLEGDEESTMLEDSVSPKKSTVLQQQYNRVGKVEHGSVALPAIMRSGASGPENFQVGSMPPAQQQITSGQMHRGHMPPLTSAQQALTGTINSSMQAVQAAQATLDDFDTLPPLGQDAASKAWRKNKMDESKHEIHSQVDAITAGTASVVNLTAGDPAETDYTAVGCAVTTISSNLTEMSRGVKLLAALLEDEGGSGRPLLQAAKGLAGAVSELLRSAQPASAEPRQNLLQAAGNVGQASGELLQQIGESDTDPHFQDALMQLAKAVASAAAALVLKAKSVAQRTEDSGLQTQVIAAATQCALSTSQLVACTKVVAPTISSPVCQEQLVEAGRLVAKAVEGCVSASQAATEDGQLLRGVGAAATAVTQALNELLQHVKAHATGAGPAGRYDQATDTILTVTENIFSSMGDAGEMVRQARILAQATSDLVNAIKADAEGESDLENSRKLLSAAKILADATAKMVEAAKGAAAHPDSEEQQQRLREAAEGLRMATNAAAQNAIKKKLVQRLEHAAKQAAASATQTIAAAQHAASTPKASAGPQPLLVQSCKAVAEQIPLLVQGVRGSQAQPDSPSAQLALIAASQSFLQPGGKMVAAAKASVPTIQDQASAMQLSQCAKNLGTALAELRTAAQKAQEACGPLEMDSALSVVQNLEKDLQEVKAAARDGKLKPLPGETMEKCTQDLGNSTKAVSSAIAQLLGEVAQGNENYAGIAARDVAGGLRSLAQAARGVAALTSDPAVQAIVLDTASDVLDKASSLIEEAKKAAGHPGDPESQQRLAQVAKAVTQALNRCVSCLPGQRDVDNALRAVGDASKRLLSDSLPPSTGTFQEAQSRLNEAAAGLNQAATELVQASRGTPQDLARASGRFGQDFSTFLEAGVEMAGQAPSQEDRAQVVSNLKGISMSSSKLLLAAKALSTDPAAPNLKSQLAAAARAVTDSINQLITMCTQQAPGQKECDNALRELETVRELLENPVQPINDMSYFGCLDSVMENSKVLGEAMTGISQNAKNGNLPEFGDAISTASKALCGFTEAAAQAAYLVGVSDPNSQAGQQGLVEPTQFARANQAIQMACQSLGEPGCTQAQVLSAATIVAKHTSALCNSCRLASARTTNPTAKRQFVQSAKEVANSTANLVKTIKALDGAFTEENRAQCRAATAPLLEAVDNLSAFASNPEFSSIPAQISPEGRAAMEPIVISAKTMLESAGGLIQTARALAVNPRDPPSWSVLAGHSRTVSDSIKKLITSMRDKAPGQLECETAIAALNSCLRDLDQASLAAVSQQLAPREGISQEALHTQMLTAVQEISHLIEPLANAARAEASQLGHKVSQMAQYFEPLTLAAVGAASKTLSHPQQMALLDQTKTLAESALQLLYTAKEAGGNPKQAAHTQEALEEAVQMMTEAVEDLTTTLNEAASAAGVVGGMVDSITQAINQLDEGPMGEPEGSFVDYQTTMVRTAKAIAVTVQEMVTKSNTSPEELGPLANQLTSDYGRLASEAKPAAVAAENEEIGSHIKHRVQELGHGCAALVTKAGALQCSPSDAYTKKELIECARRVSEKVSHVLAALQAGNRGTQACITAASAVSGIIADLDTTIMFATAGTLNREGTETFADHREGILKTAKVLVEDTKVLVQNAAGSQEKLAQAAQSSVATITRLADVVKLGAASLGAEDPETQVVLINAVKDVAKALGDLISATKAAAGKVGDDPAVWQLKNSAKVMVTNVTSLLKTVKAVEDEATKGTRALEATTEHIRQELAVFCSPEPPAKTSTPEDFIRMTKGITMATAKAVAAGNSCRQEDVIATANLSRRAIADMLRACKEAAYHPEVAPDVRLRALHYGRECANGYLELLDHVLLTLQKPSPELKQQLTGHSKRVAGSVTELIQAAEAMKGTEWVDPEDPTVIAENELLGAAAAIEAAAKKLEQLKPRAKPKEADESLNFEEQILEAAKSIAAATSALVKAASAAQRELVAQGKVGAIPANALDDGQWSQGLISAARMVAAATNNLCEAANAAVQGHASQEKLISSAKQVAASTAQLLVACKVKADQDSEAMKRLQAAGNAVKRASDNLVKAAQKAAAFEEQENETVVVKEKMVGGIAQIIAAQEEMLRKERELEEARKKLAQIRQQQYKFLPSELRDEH
UniProt Q9NWD8: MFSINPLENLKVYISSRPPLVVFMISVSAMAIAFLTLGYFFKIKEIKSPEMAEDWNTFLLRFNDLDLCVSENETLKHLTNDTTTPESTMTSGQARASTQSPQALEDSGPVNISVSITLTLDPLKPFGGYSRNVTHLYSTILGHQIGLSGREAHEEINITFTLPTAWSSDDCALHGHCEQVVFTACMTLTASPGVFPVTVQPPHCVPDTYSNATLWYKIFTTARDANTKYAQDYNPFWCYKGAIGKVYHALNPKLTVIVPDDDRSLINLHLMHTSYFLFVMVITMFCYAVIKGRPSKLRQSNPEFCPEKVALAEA
UniProt Q9BVK6: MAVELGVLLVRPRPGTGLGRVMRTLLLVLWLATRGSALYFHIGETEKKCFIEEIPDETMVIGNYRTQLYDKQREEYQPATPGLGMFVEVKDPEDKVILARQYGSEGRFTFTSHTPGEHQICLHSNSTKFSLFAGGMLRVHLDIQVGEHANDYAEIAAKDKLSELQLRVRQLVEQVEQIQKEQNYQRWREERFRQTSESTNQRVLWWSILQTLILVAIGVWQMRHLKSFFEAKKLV
UniProt P17152: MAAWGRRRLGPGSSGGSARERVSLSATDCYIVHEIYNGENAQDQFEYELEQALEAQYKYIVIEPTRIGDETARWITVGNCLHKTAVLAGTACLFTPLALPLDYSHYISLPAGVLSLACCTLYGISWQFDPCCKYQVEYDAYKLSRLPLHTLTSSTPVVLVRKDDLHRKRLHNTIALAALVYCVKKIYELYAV
UniProt Q8NBN3: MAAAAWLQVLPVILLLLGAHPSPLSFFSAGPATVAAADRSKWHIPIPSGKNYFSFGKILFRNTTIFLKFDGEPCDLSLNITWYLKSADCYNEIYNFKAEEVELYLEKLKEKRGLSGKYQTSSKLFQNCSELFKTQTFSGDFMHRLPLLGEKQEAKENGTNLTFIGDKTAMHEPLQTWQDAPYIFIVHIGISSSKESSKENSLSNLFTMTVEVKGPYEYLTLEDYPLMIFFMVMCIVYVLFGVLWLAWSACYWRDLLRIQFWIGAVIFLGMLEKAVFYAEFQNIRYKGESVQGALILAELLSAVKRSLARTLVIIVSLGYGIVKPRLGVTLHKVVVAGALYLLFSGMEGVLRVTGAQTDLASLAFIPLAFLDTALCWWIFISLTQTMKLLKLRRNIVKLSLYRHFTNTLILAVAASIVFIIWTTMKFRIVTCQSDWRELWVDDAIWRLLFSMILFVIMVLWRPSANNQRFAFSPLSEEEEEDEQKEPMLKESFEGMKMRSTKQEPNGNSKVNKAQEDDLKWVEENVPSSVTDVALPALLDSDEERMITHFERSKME
UniProt Q71RG4: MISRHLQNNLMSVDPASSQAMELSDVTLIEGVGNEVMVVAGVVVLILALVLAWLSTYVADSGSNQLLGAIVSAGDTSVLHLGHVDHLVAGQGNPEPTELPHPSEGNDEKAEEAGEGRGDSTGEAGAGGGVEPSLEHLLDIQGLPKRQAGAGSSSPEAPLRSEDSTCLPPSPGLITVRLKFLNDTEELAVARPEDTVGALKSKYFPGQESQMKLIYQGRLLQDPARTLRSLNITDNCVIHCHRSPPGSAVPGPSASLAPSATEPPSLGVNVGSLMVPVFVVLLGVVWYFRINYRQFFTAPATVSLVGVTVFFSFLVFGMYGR
UniProt Q5BJF2, whole entry, looked up: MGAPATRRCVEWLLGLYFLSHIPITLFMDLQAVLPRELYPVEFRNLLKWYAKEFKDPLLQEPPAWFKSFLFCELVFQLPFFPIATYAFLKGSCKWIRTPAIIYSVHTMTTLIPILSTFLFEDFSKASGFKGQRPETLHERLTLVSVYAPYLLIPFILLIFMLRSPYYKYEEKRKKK
UniProt Q96K49: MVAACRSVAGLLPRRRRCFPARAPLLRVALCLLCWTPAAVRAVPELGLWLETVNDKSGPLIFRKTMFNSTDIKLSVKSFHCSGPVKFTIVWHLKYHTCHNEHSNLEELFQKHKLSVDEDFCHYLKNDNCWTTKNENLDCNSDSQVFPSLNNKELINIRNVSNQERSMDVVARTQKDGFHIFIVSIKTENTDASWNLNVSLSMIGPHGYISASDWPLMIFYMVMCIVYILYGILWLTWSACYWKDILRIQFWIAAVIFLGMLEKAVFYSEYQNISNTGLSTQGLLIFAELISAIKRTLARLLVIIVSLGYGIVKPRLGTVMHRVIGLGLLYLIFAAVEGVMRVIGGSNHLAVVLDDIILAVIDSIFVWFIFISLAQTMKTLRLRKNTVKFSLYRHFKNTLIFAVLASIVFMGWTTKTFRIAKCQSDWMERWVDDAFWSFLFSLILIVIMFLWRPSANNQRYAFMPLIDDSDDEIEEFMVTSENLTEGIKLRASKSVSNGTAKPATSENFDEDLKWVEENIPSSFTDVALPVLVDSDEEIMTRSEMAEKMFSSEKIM
UniProt Q9H1E5: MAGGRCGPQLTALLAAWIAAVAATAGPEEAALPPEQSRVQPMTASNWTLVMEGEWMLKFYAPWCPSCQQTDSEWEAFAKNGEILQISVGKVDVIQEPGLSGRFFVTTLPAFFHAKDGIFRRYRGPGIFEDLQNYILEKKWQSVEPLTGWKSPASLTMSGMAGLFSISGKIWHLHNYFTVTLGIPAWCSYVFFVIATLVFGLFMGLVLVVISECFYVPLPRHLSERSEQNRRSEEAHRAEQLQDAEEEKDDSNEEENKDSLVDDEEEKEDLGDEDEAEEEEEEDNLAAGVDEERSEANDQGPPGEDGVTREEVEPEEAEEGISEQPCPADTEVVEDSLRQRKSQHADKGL
UniProt Q8TDI8: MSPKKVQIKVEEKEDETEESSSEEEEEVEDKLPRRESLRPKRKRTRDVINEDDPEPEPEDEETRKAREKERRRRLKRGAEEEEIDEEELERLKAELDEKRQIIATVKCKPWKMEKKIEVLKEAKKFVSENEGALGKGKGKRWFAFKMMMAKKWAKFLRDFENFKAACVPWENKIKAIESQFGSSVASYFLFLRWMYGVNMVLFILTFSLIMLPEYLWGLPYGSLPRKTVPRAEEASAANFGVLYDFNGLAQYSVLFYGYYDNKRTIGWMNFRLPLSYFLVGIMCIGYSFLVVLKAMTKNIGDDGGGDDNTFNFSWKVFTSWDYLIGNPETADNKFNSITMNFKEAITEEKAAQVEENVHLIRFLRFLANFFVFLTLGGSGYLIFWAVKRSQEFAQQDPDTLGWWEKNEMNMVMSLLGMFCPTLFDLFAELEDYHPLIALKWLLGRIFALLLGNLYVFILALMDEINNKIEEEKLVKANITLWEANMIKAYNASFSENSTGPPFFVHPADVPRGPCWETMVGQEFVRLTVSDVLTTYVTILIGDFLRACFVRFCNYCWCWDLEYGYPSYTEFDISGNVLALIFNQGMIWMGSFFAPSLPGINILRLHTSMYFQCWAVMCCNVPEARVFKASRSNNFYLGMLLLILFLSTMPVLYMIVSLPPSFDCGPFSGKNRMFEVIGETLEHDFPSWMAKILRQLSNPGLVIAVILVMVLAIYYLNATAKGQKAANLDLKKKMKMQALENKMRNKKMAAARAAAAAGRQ
UniProt Q9H0R3: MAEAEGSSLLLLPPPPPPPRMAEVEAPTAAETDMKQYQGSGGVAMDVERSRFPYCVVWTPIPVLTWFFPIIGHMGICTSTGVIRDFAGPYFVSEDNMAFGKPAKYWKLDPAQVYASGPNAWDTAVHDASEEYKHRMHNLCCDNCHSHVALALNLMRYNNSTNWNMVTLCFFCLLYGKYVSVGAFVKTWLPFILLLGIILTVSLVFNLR
UniProt Q53S58: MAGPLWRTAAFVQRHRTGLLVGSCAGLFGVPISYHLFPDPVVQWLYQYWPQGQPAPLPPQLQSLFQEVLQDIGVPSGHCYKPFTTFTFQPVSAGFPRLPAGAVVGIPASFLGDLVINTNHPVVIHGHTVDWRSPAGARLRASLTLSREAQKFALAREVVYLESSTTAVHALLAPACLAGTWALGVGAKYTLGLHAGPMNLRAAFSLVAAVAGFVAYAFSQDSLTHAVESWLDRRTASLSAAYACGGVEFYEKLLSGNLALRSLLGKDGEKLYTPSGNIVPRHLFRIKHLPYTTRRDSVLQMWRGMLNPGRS

Experiments:
Experiment in all cases: log2 fold change, soluble protein after heating vs DMSO (PISA); higher = thermal stabilisation; K562 cells, 10 uM, 30 min; active = over 0.2 and 3.5 SD of the protein, either way, in both replicates (recomputed)
[1] = compound: CS(=O)(=O)c1ccc(-c2cnc(N)c(C(=O)Nc3ccccc3)n2)cc1
In short: (§1)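 K562 cells at 2×10^6 cells/mL were exposed to 10 μM compound for 30 min, then aliquots were heated for 3 min across 48°C-58°C, pooled, and extracted in PBS containing 0.5% NP-40 at 4°C. The supernatant after 21,000xg for 90 min was taken as soluble protein and measured by TMTpro 16plex LC-MS/MS with channel sums equalised. Thermal stability is reported relative to control samples, with values from duplicates. Fold changes are given on a log2 scale.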

crizotinib = compound: C[C@@H](Oc1cc(-c2cnn(C3CCNCC3)c2)cnc1N)c1c(Cl)ccc(F)c1Cl [crizotinib]
In short: as §1

[2] = compound: C[C@@H]1COCCN1C2=NC(=NC(=C2)C3(CC3)S(=O)(=O)C)C4=C5C=CNC5=CC=C4
In short: as §1

[3] = compound: C[C@H](C1=CC=C(C=C1)C(=O)NC2=C3C=CNC3=NC=C2)N
In short: as §1

duvelisib = compound: C[C@H](Nc1ncnc2nc[nH]c12)c1cc2cccc(Cl)c2c(=O)n1-c1ccccc1 [duvelisib]
In short: as §1

gandotinib = compound: Cc1cc(Nc2cc(CN3CCOCC3)c3nc(C)c(Cc4ccc(Cl)cc4F)n3n2)n[nH]1 [gandotinib]
In short: as §1

tozasertib = compound: Cc1cc(Nc2cc(N3CCN(C)CC3)nc(Sc3ccc(NC(=O)C4CC4)cc3)n2)n[nH]1 [tozasertib]
In short: as §1

[4] = compound: Cc1cc(SCc2sc(-c3ccc(C(F)(F)F)cc3)nc2C)ccc1OCC(=O)O
In short: as §1

doramapimod = compound: Cc1ccc(-n2nc(C(C)(C)C)cc2NC(=O)Nc2ccc(OCCN3CCOCC3)c3ccccc23)cc1 [doramapimod]
In short: as §1

ispinesib = compound: Cc1ccc(C(=O)N(CCCN)[C@@H](c2nc3cc(Cl)ccc3c(=O)n2Cc2ccccc2)C(C)C)cc1 [ispinesib]
In short: as §1

bafetinib = compound: Cc1ccc(NC(=O)c2ccc(CN3CC[C@H](N(C)C)C3)c(C(F)(F)F)c2)cc1Nc1nccc(-c2cncnc2)n1 [bafetinib]
In short: as §1

[5] = compound: Cc1cccc(CC(=O)N2CCc3c2ccc(-c2cn(C)c4ncnc(N)c24)c3F)n1
In short: as §1

nilotinib = compound: Cc1cn(-c2cc(NC(=O)c3ccc(C)c(Nc4nccc(-c5cccnc5)n4)c3)cc(C(F)(F)F)c2)cn1 [nilotinib]
In short: as §1

[6] = compound: Cc1nc(Nc2n[nH]c3c2CN(C(=O)N[C@H](CN(C)C)c2ccccc2)C3(C)C)c2sccc2n1
In short: as §1

dasatinib = compound: Cc1nc(Nc2ncc(C(=O)Nc3c(C)cccc3Cl)s2)cc(N2CCN(CCO)CC2)n1 [dasatinib]
In short: as §1

[7] = compound: Cc1ncc(-c2ccnc(Nc3ccc(S(C)(=O)=O)cc3)n2)n1C(C)C
In short: as §1

[8] = compound: Cn1cc(-c2ccc3c(c2)CCN3C(=O)Cc2cccc(C(F)(F)F)c2)c2c(N)ncnc21
In short: as §1

[9] = compound: Cn1cc(-c2ccc3nnc(C(F)(F)c4ccc5ncccc5c4)n3n2)cn1
In short: as §1

tipifarnib = compound: Cn1cncc1[C@@](N)(c1ccc(Cl)cc1)c1ccc2c(c1)c(-c1cccc(Cl)c1)cc(=O)n2C [tipifarnib]
In short: as §1

mubritinib = compound: FC(F)(F)c1ccc(/C=C/c2nc(COc3ccc(CCCCn4ccnn4)cc3)co2)cc1 [mubritinib]
In short: as §1

Measured: log2 fold change

TLN1 (UniProt Q9Y490)
inactive: [1] -0.003 | crizotinib 0.019 | [2] 0.059 | [3] -0.009 | duvelisib 0.023 | gandotinib -0.08 | tozasertib 0.034 | [4] 0.053 | doramapimod -0.01 | ispinesib 0.037 | bafetinib 0.013 | [5] 0.018 | nilotinib -0.044 | [6] -0.026 | dasatinib -0.076 | [7] 0.026 | [8] 0.004 | [9] -0.01 | tipifarnib -0.108 | mubritinib 0.036

TMEM248 (UniProt Q9NWD8)
inactive: [1] -0.045 | crizotinib 0.063 | [2] -0.031 | [3] 0.059 | duvelisib 0.159 | gandotinib 0.001 | tozasertib 0.014 | [4] -0.14 | doramapimod 0.044 | ispinesib -0.051 | bafetinib -0.02 | [5] -0.082 | nilotinib -0.126 | [6] -0.007 | dasatinib 0.119 | [7] 0.067 | [8] 0.047 | [9] -0.021 | tipifarnib -0.052 | mubritinib 0.069

TMED9 (UniProt Q9BVK6)
inactive: [1] -0.006 | crizotinib 0.045 | [2] 0.012 | [3] -0.069 | duvelisib 0.01 | gandotinib 0.023 | tozasertib -0.006 | [4] 0.026 | doramapimod 0.025 | ispinesib 0.003 | bafetinib -0.005 | [5] -0.082 | nilotinib -0.021 | [6] -0.001 | dasatinib 0.037 | [7] 0.034 | [8] 0.021 | [9] 0.025 | tipifarnib 0.012 | mubritinib 0.043

TMEM11 (UniProt P17152)
inactive: [1] 0.052 | crizotinib 0.145 | [2] 0.057 | [3] -0.086 | duvelisib 0.055 | gandotinib 0.002 | tozasertib -0.005 | [4] 0.076 | doramapimod -0.083 | ispinesib 0.095 | bafetinib -0.032 | [5] -0.029 | nilotinib -0.019 | [6] -0.011 | dasatinib 0.011 | [7] -0.024 | [8] -0.002 | [9] -0.134 | tipifarnib 0.025 | mubritinib 0.033

TMEM87A (UniProt Q8NBN3)
inactive: [1] 0.028 | crizotinib -0.198 | [2] 0.005 | [3] -0.005 | duvelisib 0.064 | gandotinib 0.008 | tozasertib -0.014 | [4] -0.062 | doramapimod -0.023 | ispinesib -0.098 | bafetinib -0.052 | [5] -0.05 | nilotinib 0.018 | [6] 0.005 | dasatinib 0.067 | [7] 0.002 | [8] 0.012 | [9] 0.013 | tipifarnib 0.046 | mubritinib 0.079

TM9SF3 (UniProt Q9HD45)
inactive: [1] 0.037 | crizotinib 0.072 | [2] 0.043 | [3] -0.152 | duvelisib -0.02 | gandotinib -0.016 | tozasertib -0.036 | [4] 0.056 | doramapimod -0.007 | ispinesib 0.162 | bafetinib 0.006 | [5] 0.032 | nilotinib -0.004 | [6] 0.019 | dasatinib 0.006 | [7] -0.018 | [8] 0.058 | [9] -0.003 | tipifarnib -0.067 | mubritinib 0.044

TMUB2 (UniProt Q71RG4)
inactive: [1] -0.101 | crizotinib 0.006 | [2] -0.014 | [3] 0.035 | duvelisib -0.067 | gandotinib -0.042 | tozasertib -0.049 | [4] -0.103 | doramapimod 0.052 | ispinesib -0.101 | bafetinib 0.026 | [5] -0.112 | nilotinib 0.03 | [6] 0.256 | dasatinib 0.118 | [7] 0.096 | [8] 0.003 | [9] 0.021 | tipifarnib 0.101 | mubritinib 0.079

TMEM97 (UniProt Q5BJF2)
inactive: [1] 0.056 | crizotinib 0.118 | [2] 0.119 | [3] 0.018 | duvelisib 0.015 | gandotinib -0.007 | tozasertib -0.077 | [4] -0.009 | doramapimod 0.004 | ispinesib 0.054 | bafetinib -0.051 | [5] -0.072 | nilotinib -0.02 | [6] 0.048 | dasatinib 0.051 | [7] -0.096 | [8] 0.027 | [9] -0.112 | tipifarnib 0.04 | mubritinib 0.039

TMPPE (UniProt Q6ZT21)
inactive: [1] -0.001 | crizotinib -0.009 | [2] 0.087 | [3] 0.004 | duvelisib 0.024 | gandotinib 0.113 | tozasertib -0.034 | [4] -0.039 | doramapimod 0.018 | ispinesib -0.011 | bafetinib 0.037 | [5] -0.037 | nilotinib 0.001 | [6] 0.011 | dasatinib 0.017 | [7] -0.05 | [8] 0.039 | [9] 0.049 | tipifarnib 0.077 | mubritinib 0.011

TMEM87B (UniProt Q96K49)
inactive: [1] 0.01 | crizotinib -0.323 | [2] -0.063 | [3] -0.033 | gandotinib -0.11 | [4] 0.071 | doramapimod -0.059 | bafetinib -0.138 | [5] 0.015 | nilotinib 0.037 | [6] -0.072 | dasatinib 0.002 | [7] 0.05 | [8] -0.077 | [9] -0.08 | tipifarnib 0.069 | mubritinib 0.006
active: ispinesib -0.406

TMED3 (UniProt Q9Y3Q3)
inactive: [1] -0.03 | crizotinib -0.021 | [2] 0.003 | [3] 0.05 | duvelisib 0.001 | gandotinib -0.057 | tozasertib -0.003 | [4] 0.064 | doramapimod 0.04 | bafetinib -0.13 | [5] 0.003 | nilotinib -0.107 | [6] 0.103 | dasatinib -0.04 | [7] 0.013 | [8] 0.009 | tipifarnib -0.032 | mubritinib -0.041

Quoted from above (two entries):
TMEM97 (UniProt Q5BJF2)
inactive: [1] 0.056 | crizotinib 0.118 | [2] 0.119 | [3] 0.018 | duvelisib 0.015 | gandotinib -0.007 | tozasertib -0.077 | [4] -0.009 | doramapimod 0.004 | ispinesib 0.054 | bafetinib -0.051 | [5] -0.072 | nilotinib -0.02 | [6] 0.048 | dasatinib 0.051 | [7] -0.096 | [8] 0.027 | [9] -0.112 | tipifarnib 0.04 | mubritinib 0.039

TMPPE (UniProt Q6ZT21)
inactive: [1] -0.001 | crizotinib -0.009 | [2] 0.087 | [3] 0.004 | duvelisib 0.024 | gandotinib 0.113 | tozasertib -0.034 | [4] -0.039 | doramapimod 0.018 | ispinesib -0.011 | bafetinib 0.037 | [5] -0.037 | nilotinib 0.001 | [6] 0.011 | dasatinib 0.017 | [7] -0.05 | [8] 0.039 | [9] 0.049 | tipifarnib 0.077 | mubritinib 0.011

Further results follow.

TMX4 (UniProt Q9H1E5)
inactive: [1] 0.038 | crizotinib 0.063 | [2] -0.026 | [3] 0.169 | duvelisib 0.012 | gandotinib 0.137 | tozasertib -0.013 | [4] 0.045 | doramapimod 0.046 | ispinesib -0.007 | bafetinib -0.101 | [5] -0.145 | nilotinib 0.096 | [6] 0.039 | dasatinib -0.025 | [7] -0.116 | [8] -0.005 | [9] -0.034 | tipifarnib 0.128 | mubritinib 0.017

TMC1 (UniProt Q8TDI8)
inactive: [1] -0.049 | crizotinib 0.02 | [2] 0.113 | [3] 0.073 | duvelisib 0.153 | gandotinib -0.479 | tozasertib -0.073 | [4] -0.089 | doramapimod 0.1 | bafetinib 0.189 | [5] -0.011 | nilotinib -0.39 | [6] 0.179 | dasatinib 0.201 | [7] -0.177 | [8] 0.031 | tipifarnib 0.029 | mubritinib 0.01

TMEM222 (UniProt Q9H0R3)
inactive: [1] 0.049 | crizotinib 0.035 | [2] 0.207 | [3] 0.161 | duvelisib -0.096 | gandotinib 0.031 | tozasertib 0.069 | [4] 0.155 | doramapimod 0.155 | ispinesib 0.113 | bafetinib 0.017 | [5] 0.148 | nilotinib -0.037 | [6] -0.092 | dasatinib 0.06 | [7] 0.003 | [8] -0.006 | [9] 0.053 | tipifarnib 0.118 | mubritinib -0.035

TMEM177 (UniProt Q53S58)
active: ispinesib -0.304
inactive: [1] 0.005 | crizotinib 0.033 | [2] 0.065 | [3] 0.011 | gandotinib 0.025 | [4] 0.053 | doramapimod -0.062 | bafetinib -0.123 | [5] 0.054 | nilotinib -0.001 | [6] -0.005 | dasatinib -0.045 | [7] 0.023 | [8] -0.019 | [9] 0.016 | tipifarnib 0.004 | mubritinib 0.026
